Test results taken from publication PMC7306619.

Assays:
[1] = target: GST‐OsIAA13 (Oryza sativa); experiment: pull-down; GST fusion or GST from bacterial lysate immobilised on GSH-Sepharose 4B and washed; about 4 ug pre-cleared bacterial extract of the 6xHis protein, 1 h at 4 C in EB (150 mM NaCl, 100 mM Tris-Cl pH 7.5, 0.5% NP40, protease inhibitor, MG132), with 5 uM IAA and 50 uM MG132 (for OsDi19-5 also without IAA); anti-His immunoblot; only the target purified
[2] = target: OsIAA13/cYFPC1 (Oryza sativa); experiment: split reporter; split EYFP (pSITE-cEYFPC1 and pSITE-nEYFPC1) co-bombarded into onion epidermal cells; confocal microscopy, fluorescence in the nucleus

Row | Binder | binding [1] | binding [2]
1 | 6xHis‐OsDi19‐5 (protein, UniProt Q5JME8 1-202) MEVEASYSYGFLPSGRHQPYAPPPPHPAEEGELWEYFPCPFCYIEVEVPFICNHLQEEHCFDTRNAVCPLCADNIGRDMGAHFRVQHSHLLKRRKPSRPSSSWPTPSNNSDPYFEGPPQYMMNNRTYQDPAPDPLLSQFICSMAQTDTNSDNTNTEIAVSAVSHDQRLSQRVTLTDDASKLELKERLQRIEFVKEIIMSTIL | binds | 
2 | OsDi19‐5/nYFPC1 (protein, UniProt Q5JME8 1-202) MEVEASYSYGFLPSGRHQPYAPPPPHPAEEGELWEYFPCPFCYIEVEVPFICNHLQEEHCFDTRNAVCPLCADNIGRDMGAHFRVQHSHLLKRRKPSRPSSSWPTPSNNSDPYFEGPPQYMMNNRTYQDPAPDPLLSQFICSMAQTDTNSDNTNTEIAVSAVSHDQRLSQRVTLTDDASKLELKERLQRIEFVKEIIMSTIL |  | binds

These are yes or no findings as the source states them, for the method shown. Binding seen in cells or lysates may run through a third protein. Binding calls can cover weak binding; strength is not graded here. For some assays here: Sequences can lack the tags named with a protein.
